Source: paper PMC8359183, “The periplasmic domains of Vibriocholerae ToxR and ToxS are forming a strong heterodimeric complex independent on the redox state of ToxR cysteines” (Molecular Microbiology, 2021)
These are yes or no findings as the source states them, for the method shown.

Biological target: periplasmic domain of Vibrio cholerae ToxR, oxidized, with an intramolecular disulfide bond (ToxRp-ox) (Vibrio cholerae)
Assay: NMR relaxation (rotational correlation time from 15N T1 and T2); both purified

B1: periplasmic domain of Vibrio cholerae ToxR, oxidized, with an intramolecular disulfide bond (ToxRp-ox) (domain or fragment)
chain: PSQTSFKPLTVVDGVAVNMPNNHPDLSNWLPSIELCVKKYNEKHTGGLKPIEVIATGGQNNQLTLNYIHSPEVSGENITLRIVANPNDAIKVCE
notes: also called pToxR-ox; ToxRp-ox-V.c
binding: no binding
